Laboratory results: PubChem BioAssay AID1259308 (NCATS, 2017)
Screen: 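Knock-downs that increase output of a recombinant reporter protein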 (primary screen). System: human HEK293 embryonic kidney cells stably expressing firefly luciferase (HEK-CMV-Luc2-Hygro). Knock-down reagent: single siRNA against human genes, 0.8 pmol siRNA per well. Duration: 72 h. Detection: 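Luciferase light (ONE-Glo) measured on one replicate plate set and viability (CellTiter-Glo) on the other, scaled to a negative control siRNA, with robust z-scores and luciferase per cell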. Scale: total luciferase, z-score and total luciferase, % of control: higher = more reporter protein produced. Active means: 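Active when the median/MAD z-score for overall luciferase is greater than 3; a gene was taken forward for validation with new siRNAs if at least two of its three siRNAs passed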. Calls: active = raised luciferase; inactive = no rise.
In all, the deposit lists about 59,000 reagents; shown is a part drawn at random. Over the whole deposit, about 1,510 (2.6%) are marked active. 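Calls use total luciferase alone and ignore viability, so some active siRNAs may act by altering cell number.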 Reagents against one gene are numbered here. Further read-outs or replicates are left out here. Reagent sequences are not shown.

gene | reagent | total luciferase, z-score | total luciferase, % of control | Call
SEZ6 | 1 | -3.27 | 16.8 | inactive
SEZ6 | 2 | 0.105 | 84 | inactive
SEZ6 | 3 | -0.155 | 78.8 | inactive
ITPRID1 | 1 | 0.0489 | 82.9 | inactive
ITPRID1 | 2 | 0.934 | 100 | inactive
ITPRID1 | 3 | 1.39 | 110 | inactive
ACOX3 | 1 | 0.286 | 87.6 | inactive
ACOX3 | 2 | 0.957 | 101 | inactive
ACOX3 | 3 | -1.16 | 58.7 | inactive
CDKL4 | 1 | 0.0724 | 83.3 | inactive
CDKL4 | 2 | 0.395 | 89.7 | inactive
CDKL4 | 3 | 0.532 | 92.5 | inactive
POU2F1 | 1 | 1.16 | 105 | inactive
POU2F1 | 2 | -1.06 | 60.9 | inactive
POU2F1 | 3 | 2.52 | 132 | inactive
IFT38 | 1 | -1.66 | 48.9 | inactive
IFT38 | 2 | -0.844 | 65.1 | inactive
IFT38 | 3 | -1.86 | 45 | inactive
RAB17 | 1 | 0.276 | 87.4 | inactive
RAB17 | 2 | -1.17 | 58.7 | inactive
RAB17 | 3 | -0.26 | 76.7 | inactive
KLRC3 | 1 | 0.00972 | 82.1 | inactive
KLRC3 | 2 | -0.508 | 71.8 | inactive
KLRC3 | 3 | -0.543 | 71.1 | inactive
SPR | 1 | -0.513 | 71.7 | inactive
SPR | 2 | 0.664 | 95.1 | inactive
SPR | 3 | -0.86 | 64.8 | inactive
CYP2D6 | 1 | -0.161 | 78.7 | inactive
CYP2D6 | 2 | -0.198 | 77.9 | inactive
CYP2D6 | 3 | -0.0958 | 80 | inactive
ZNF37A | 1 | 1.52 | 112 | inactive
ZNF37A | 2 | -0.416 | 73.6 | inactive
ZNF37A | 3 | -1.17 | 58.7 | inactive

The list goes on; the last 8 above are carried over.
gene | reagent | total luciferase, z-score | total luciferase, % of control | Call
SPR | 2 | 0.664 | 95.1 | inactive
SPR | 3 | -0.86 | 64.8 | inactive
CYP2D6 | 1 | -0.161 | 78.7 | inactive
CYP2D6 | 2 | -0.198 | 77.9 | inactive
CYP2D6 | 3 | -0.0958 | 80 | inactive
ZNF37A | 1 | 1.52 | 112 | inactive
ZNF37A | 2 | -0.416 | 73.6 | inactive
ZNF37A | 3 | -1.17 | 58.7 | inactive
CSMD1 | 1 | 1.16 | 105 | inactive
CSMD1 | 2 | 0.808 | 97.9 | inactive
CSMD1 | 3 | -0.138 | 79.2 | inactive
RPS29P3 | 1 | 0.479 | 91.4 | inactive
RPS29P3 | 2 | -1.63 | 49.5 | inactive
RPS29P3 | 3 | -2.69 | 28.5 | inactive
RAB19 | 1 | -0.28 | 76.3 | inactive
RAB19 | 2 | -0.313 | 75.7 | inactive
RAB19 | 3 | -1.36 | 54.8 | inactive
OXCT1 | 1 | -1.31 | 55.9 | inactive
OXCT1 | 2 | -0.742 | 67.1 | inactive
OXCT1 | 3 | -0.479 | 72.4 | inactive
TMPRSS15 | 1 | 0.742 | 96.6 | inactive
TMPRSS15 | 2 | 0.549 | 92.8 | inactive
TMPRSS15 | 3 | -0.39 | 74.1 | inactive
RPAP2 | 1 | -0.365 | 74.6 | inactive
RPAP2 | 2 | -1.25 | 57 | inactive
RPAP2 | 3 | -0.431 | 73.3 | inactive
CMA1 | 1 | 0.852 | 98.8 | inactive
CMA1 | 2 | 0.697 | 95.7 | inactive
CMA1 | 3 | -0.112 | 79.7 | inactive
LRRC46 | 1 | 0.249 | 86.8 | inactive
LRRC46 | 2 | -0.408 | 73.8 | inactive
LRRC46 | 3 | -0.661 | 68.7 | inactive
